{"sequences": {"note": "Chains of the proteins cited; added tags and fusions are not shown.", "UniProt Q921F2, whole entry": "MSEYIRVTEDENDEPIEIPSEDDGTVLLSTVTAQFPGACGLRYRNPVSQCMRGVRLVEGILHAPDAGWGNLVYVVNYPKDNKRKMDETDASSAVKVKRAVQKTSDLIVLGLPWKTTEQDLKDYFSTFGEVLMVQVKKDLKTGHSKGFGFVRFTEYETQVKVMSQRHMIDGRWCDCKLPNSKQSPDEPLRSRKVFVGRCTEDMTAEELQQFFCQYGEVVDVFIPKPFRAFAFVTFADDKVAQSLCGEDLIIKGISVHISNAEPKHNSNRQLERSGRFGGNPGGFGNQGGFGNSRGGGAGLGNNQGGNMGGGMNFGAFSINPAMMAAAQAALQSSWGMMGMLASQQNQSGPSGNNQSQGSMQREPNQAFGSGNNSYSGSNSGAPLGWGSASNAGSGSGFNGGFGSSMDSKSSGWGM"}, "source": "patent US9844519B1", "about": "“Method of treating TDP-43 proteinopathies using hexachlorophene” (University of South Florida, priority 2014, dated 2017)", "target": "T1, TDP-43 (Mus musculus, UniProt Q921F2)", "T1 construct": "N9 cells expressing endogenous TDP-43 were treated with various concentrations of B10; endogenous in cells; host or cells: N9 mouse microglial cells", "assay": "InCell Western (ICW) drug screen for TDP-43 levels in N9 cells", "type": "cell-based", "conditions": "N9 cells treated 24 hours, DMSO vehicle control = 100", "protocol": "To optimize the ICW technique for screening TDP-43 targeting drugs, N9 cells were seeded in a 96-well plate and processed for ICW by using various dilution of TDP-43 antibody. TDP-43 antibody, used at a dilution of 1:1000, provided sufficient signal for detection (FIG. 1A).\nFor drug screening, N9 cells were treated with a panel of candidate drug molecules for 24 hours and the effect on TDP-43 levels was analyzed using the InCell Western assay. […] Based on its effect on TDP-43 levels, B10 was chosen was further analysis.\nTo optimize TDP-43 targeting ICW, N9 cells were seeded in a 96-well plate and probed with different dilutions of TDP-43 antibody as previously described (Jinwal and Dickey, 2011). For the identification of candidate drug molecules, N9 cells were treated with an array of drugs for 24 hours and processed for ICW (Jinwal and Dickey, 2011). In brief, cells were fixed, washed with PBS and incubated in blocking buffer. Cells were then incubated in primary antibody to TDP-43 (1:1000) and GAPDH (1:3000) for overnight. After washing with 0.2% Tween-20 PBS, cells were incubated with fluorescently tagged secondary antibodies for 1 hour and 30 minutes. Fluorescence intensity was then recorded and quantified using the Odyssey Infrared Imaging System (LI-COR). ICW experiments were performed in duplicate.", "data": [{"smiles": "CCN(CC)CCOC(=O)C1(C2CCCCC2)CCCCC1", "note": "[B9, Dicyclomine]", "values": [{"measurement": "% TDP43 level", "value": 115, "unit": "%"}]}]}
